This is one part of the list. The data scatter; read single values as rough.
Tests used:
[1] = compound: ClCC(=O)N[C@@H]1CCCc2ccccc12; assay: log2 mean competition ratio of IA-DTB cysteine labelling (DMSO/compound) (log2 ratio); higher = stronger cysteine engagement by compound; conditions: treatment time: 4 h, cell line lysate: HEK293T
Procedure: (§1)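 IA-DTB competitive cysteine chemoproteomics in HEK293T RIPA lysate. Lysates were treated with compound 29 or 30 at 50 or 200 µM for 4 h, then IA-DTB (500 µM, 1 h), trypsin-digested, NeutrAvidin-enriched and analysed by diaPASEF. Competition ratio = intensity DMSO / intensity compound (n=4 treated, n=64 DMSO); binding: mean log2 CR ≥ 1 and p ≤ 0.05 plus QC filters. Target is the cysteine site.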

Sequences of proteins named here, by UniProt entry; tags and fusion partners are left off. A change or cut given only in a name is not applied to a line headed by its entry. Residues count along the entry.
UniProt Q13362, whole entry, looked up: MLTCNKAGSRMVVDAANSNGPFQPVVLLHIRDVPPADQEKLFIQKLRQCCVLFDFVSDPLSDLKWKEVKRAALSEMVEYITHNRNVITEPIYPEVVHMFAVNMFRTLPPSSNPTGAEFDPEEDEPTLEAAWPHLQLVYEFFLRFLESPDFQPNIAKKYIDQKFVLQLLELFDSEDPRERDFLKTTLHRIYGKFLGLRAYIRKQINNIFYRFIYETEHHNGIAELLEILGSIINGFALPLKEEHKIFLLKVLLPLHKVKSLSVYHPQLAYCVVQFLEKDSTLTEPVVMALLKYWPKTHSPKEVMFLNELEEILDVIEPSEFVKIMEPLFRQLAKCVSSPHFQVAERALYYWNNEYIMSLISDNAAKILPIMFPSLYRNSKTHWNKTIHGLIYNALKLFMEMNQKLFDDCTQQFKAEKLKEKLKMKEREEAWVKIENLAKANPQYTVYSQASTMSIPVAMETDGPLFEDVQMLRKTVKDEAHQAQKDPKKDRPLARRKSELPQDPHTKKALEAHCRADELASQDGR
UniProt Q9NVM4: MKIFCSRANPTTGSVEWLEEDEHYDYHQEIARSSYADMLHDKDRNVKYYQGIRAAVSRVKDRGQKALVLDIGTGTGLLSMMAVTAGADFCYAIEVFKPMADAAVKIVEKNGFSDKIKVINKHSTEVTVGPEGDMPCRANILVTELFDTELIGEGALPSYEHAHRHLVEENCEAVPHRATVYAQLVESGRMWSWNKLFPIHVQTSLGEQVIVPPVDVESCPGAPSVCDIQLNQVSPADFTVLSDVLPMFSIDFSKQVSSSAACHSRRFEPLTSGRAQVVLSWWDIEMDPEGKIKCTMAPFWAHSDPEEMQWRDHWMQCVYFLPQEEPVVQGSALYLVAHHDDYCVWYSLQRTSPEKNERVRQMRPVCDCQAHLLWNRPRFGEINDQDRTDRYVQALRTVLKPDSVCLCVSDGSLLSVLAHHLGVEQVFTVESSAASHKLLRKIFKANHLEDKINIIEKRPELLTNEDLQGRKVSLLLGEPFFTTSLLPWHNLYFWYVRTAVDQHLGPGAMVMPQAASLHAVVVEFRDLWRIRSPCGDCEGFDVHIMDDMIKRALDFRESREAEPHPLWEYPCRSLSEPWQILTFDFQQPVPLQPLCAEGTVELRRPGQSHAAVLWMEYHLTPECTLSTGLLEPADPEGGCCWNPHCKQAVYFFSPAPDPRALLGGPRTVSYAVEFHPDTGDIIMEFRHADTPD
UniProt Q13356: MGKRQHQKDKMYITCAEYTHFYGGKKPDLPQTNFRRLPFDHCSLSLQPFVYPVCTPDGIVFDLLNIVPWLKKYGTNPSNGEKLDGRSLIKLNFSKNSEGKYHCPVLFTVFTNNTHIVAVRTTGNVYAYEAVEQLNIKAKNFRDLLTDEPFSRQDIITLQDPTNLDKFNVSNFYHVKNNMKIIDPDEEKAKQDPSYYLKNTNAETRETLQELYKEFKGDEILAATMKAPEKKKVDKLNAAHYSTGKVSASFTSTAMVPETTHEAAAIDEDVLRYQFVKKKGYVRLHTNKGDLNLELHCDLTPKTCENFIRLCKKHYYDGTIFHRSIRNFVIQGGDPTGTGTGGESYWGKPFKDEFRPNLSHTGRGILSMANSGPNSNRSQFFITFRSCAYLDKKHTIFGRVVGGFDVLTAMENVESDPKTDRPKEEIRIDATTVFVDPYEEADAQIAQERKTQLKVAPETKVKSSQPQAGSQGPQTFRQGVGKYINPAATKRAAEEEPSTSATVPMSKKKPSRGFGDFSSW
UniProt Q86XN7: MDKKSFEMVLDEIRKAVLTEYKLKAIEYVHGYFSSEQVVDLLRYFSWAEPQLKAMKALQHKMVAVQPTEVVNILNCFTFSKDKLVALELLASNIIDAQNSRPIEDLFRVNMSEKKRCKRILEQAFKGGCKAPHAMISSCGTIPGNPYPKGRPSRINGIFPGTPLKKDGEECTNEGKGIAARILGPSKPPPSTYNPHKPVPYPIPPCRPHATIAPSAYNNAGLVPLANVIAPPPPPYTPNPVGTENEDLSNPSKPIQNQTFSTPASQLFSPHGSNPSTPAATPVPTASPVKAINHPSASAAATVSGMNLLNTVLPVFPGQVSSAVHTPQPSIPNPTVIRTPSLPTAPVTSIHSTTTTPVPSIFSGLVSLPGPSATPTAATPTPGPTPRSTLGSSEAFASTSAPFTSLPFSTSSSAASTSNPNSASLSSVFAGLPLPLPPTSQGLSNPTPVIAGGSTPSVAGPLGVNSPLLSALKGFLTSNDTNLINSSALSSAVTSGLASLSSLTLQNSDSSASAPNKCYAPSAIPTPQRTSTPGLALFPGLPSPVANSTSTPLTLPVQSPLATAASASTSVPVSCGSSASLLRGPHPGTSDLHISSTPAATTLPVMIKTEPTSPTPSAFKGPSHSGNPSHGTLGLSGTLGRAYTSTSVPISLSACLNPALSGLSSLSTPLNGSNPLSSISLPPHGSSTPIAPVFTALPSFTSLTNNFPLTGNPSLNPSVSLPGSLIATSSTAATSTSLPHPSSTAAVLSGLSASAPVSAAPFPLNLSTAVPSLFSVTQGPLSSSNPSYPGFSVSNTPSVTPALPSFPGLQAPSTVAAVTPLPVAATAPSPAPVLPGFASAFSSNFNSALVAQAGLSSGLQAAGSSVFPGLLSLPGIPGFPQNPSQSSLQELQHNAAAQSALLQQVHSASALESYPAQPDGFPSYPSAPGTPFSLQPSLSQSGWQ
UniProt Q96HA1, whole entry, looked up: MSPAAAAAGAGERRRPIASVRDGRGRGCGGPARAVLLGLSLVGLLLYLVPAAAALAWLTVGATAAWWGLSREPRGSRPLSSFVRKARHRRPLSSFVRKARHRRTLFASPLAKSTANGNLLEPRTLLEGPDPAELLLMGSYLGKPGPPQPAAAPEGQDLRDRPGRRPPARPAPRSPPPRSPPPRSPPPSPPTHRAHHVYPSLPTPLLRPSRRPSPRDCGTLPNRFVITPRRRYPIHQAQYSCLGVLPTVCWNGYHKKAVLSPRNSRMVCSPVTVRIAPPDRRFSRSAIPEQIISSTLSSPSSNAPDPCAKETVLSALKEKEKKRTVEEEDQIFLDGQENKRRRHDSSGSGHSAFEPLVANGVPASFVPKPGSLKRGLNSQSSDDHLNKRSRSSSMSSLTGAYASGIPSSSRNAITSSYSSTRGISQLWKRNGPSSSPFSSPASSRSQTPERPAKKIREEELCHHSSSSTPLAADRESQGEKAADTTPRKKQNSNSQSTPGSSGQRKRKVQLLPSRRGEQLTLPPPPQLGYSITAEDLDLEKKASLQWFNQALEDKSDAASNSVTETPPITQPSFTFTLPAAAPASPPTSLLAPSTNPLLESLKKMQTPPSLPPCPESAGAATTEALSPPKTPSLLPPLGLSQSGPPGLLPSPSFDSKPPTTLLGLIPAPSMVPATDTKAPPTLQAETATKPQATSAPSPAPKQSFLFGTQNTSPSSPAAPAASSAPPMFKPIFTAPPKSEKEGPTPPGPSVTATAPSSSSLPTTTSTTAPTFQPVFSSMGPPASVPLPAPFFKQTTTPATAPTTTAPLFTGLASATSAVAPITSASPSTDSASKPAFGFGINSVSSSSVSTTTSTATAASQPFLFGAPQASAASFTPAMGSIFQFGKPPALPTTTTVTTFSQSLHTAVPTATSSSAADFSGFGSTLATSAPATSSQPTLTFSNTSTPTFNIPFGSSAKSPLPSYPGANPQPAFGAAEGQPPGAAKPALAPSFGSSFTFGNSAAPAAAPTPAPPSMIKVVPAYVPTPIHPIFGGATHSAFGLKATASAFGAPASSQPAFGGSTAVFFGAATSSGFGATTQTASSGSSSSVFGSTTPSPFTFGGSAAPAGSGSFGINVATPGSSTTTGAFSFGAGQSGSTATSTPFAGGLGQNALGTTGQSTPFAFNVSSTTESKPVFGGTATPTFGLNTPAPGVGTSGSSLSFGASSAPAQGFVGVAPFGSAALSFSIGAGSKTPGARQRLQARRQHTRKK
UniProt Q96HA1, 604-629: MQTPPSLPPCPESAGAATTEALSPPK
UniProt O43900: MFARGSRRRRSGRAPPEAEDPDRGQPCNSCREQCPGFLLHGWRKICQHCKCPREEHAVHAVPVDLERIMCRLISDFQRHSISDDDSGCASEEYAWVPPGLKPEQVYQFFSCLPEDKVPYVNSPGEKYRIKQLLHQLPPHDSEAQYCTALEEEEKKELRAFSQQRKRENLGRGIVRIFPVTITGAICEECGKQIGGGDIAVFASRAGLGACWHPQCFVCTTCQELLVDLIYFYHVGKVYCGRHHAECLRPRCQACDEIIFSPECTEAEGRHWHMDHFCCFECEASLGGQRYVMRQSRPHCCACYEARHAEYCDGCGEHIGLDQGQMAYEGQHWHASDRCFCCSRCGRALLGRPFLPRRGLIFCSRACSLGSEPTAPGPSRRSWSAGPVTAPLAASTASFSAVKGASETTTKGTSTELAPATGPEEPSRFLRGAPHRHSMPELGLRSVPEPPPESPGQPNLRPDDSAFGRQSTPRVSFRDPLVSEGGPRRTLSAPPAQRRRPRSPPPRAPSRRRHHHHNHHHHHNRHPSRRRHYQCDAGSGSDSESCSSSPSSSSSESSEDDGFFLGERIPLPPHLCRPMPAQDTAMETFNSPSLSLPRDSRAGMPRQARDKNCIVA
UniProt P54646: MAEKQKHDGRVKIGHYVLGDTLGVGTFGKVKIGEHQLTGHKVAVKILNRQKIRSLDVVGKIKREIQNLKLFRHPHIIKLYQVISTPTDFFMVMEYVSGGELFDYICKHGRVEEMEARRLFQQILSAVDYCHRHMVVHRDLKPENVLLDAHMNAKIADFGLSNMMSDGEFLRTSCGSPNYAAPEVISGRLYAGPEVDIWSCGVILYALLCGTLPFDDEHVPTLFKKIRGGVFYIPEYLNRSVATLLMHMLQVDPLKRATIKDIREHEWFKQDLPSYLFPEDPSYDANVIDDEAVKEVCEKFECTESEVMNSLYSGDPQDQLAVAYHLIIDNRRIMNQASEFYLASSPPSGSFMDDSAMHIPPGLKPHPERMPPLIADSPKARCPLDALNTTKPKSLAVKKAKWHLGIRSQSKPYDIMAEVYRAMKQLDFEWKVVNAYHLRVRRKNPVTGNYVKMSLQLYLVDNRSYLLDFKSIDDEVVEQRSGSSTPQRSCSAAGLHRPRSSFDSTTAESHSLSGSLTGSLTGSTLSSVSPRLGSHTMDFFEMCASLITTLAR
UniProt P53041: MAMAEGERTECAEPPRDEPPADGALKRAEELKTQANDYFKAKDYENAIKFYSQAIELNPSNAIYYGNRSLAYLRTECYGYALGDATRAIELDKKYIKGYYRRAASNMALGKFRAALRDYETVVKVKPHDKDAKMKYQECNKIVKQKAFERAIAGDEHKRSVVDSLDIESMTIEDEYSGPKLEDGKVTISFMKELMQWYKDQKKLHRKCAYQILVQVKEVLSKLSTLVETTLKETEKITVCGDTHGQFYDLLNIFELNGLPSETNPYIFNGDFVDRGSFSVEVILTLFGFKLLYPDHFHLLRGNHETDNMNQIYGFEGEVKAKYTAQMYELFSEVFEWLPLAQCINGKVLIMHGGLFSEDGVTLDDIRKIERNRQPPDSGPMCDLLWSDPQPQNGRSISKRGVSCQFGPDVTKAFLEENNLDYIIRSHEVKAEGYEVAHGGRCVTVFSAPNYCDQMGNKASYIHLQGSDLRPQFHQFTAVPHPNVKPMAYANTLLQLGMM
UniProt O94906: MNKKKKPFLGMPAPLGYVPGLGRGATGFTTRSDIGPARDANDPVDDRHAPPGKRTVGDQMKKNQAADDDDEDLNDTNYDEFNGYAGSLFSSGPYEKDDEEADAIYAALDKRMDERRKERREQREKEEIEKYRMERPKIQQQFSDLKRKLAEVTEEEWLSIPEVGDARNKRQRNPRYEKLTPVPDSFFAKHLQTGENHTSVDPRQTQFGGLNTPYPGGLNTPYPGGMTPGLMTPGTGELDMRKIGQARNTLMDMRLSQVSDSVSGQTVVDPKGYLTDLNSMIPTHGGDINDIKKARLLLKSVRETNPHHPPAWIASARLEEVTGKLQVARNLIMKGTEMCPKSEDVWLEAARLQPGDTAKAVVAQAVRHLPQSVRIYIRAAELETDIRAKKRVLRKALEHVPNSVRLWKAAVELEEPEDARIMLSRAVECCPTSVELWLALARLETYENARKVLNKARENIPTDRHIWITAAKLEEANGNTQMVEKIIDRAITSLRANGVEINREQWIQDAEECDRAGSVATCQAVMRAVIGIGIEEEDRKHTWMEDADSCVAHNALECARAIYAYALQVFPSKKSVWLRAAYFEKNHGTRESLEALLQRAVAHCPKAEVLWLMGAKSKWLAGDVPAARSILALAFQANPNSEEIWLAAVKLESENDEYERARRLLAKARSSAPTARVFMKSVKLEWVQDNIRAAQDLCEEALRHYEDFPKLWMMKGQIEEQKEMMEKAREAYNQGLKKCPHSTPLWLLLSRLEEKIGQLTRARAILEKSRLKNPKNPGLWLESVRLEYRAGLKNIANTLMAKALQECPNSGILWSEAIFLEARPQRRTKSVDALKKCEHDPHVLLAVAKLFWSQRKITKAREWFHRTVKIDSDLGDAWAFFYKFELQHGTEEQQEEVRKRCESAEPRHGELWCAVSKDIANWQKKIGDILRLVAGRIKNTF
UniProt Q9ULL5, 976-997: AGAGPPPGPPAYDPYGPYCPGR

[2] = compound: ClCC(=O)N[C@H]1CCCc2ccccc12; assay: as above; conditions: treatment time: 4 h, cell line lysate: HEK293T
Procedure: as §1

Row | Target | log2 mean competition ratio ([1]; 50 µM) | log2 mean competition ratio ([1]; 200 µM) | log2 mean competition ratio ([2]; 50 µM) | log2 mean competition ratio ([2]; 200 µM)
1 | PPP2R5C C513 (UniProt Q13362) | 0.23 | -0.0827 | 0.133 | -0.143
2 | PRR11 C120 | 0.206 | -0.0941 | -0.206 | 0.0726
3 | PRMT7 C136 (UniProt Q9NVM4) | -0.164 | -0.278 | -0.219 | 0.0285
4 | PPIL2 C387 (UniProt Q13356) | -0.0739 | 0.0221 | 0.0495 | -0.188
5 | PROSER1 C171 (UniProt Q86XN7) | 0.182 | 0.193 | -0.0259 | 0.484
6 | POM121 C268 (UniProt Q96HA1) | 0.132 | -0.000758 | 0.566 | 0.172
7 | PRICKLE3 C366 (UniProt O43900) | -0.219 | -0.474 | -0.294 | 0.128
8 | PPP2CB C20 | -0.206 | 0.196 | -0.101 | 0.408
9 | PRKD2 C314 | -0.552 | 0.0862 | -0.415 | -0.0462
10 | PRKAA2 C174 (UniProt P54646) | 0.254 | -0.127 | 0.722 | 0.0479
11 | PPIP5K2 C842 | -0.169 | 0.086 | -0.412 | -0.13
12 | PPP5C C139 (UniProt P53041) | 0.0689 | 0.0302 | 0.0441 | -0.0933
13 | PPM1G C13 (UniProt O15355) | -0.11 | 0.073 | -0.183 | 0.127
14 | PRPF6 C513 (UniProt O94906) | -0.0735 | 0.0163 | 0.268 | 0.254
15 | PRR12 C994 (UniProt Q9ULL5) | -0.0782 | 0.288 | 0.365 | 0.403
16 | PPP2CA C20 | -0.113 | 0.254 | 0.0663 | 0.357
17 | POM121 C613 (UniProt Q96HA1) | -0.271 | -0.156 | 0.48 | -0.152

Random excerpt: 2 records from the list.
Row | Target | log2 mean competition ratio ([1]; 50 µM) | log2 mean competition ratio ([1]; 200 µM) | log2 mean competition ratio ([2]; 50 µM) | log2 mean competition ratio ([2]; 200 µM)
16 | PPP2CA C20 | -0.113 | 0.254 | 0.0663 | 0.357
12 | PPP5C C139 (UniProt P53041) | 0.0689 | 0.0302 | 0.0441 | -0.0933
